PubChem BioAssay AID1259254 – NCATS – 2017
Here is one part, drawn at random, of about 59,000 reagents. About 1,550 of all reagents (2.6%) count as active. 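G2 share is only a proxy for re-replication; each gene was hit by three separate siRNAs, and active genes were retested.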 Reagents against one gene are numbered here. Not all columns of the deposit are shown. No sequences are given here. The record does not give: the amount of reagent.

Purpose: 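Finding genes that stop cells copying their DNA twice in one cycle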 (primary screen)
System: human HCT116 colorectal cancer cells
Reagents: single siRNA against human genes
Timing: 3 days
Read-out: 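Imaged Hoechst DNA stain sorts each cell into a cycle phase by DNA amount; per plate, G2 fraction set to 0% for non-targeting and 100% for GMNN siRNA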
Scale: G2 robust z-score and G2 cells, % of GMNN control: higher = more G2 cells, more excess DNA replication
Active means: 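Active siRNAs have a G2 robust z of 5 or more median absolute deviations over the median, which in these data means about 38% or higher of GMNN control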

Which result is listed for CDK6 #1?
G2 robust z-score: -1.5; G2 cells, % of GMNN control: -7.57; Outcome: inactive

For CDK6 #2, what does the deposit list?
G2 robust z-score: -0.836; G2 cells, % of GMNN control: -2.91; Outcome: inactive

For CDK6 #3, what was measured?
G2 robust z-score: -1.15; G2 cells, % of GMNN control: -5.14; Outcome: inactive

With CHRNA10 #1, what was measured?
G2 robust z-score: -0.819; G2 cells, % of GMNN control: -2.8; Outcome: inactive

For CHRNA10 #2, how do the results read?
G2 robust z-score: 0.947; G2 cells, % of GMNN control: 9.63; Outcome: inactive

For CHRNA10 #3, what does the deposit list?
G2 robust z-score: 2.46; G2 cells, % of GMNN control: 20.3; Outcome: inactive

What is on record for TTLL9 #1?
G2 robust z-score: -0.443; G2 cells, % of GMNN control: -0.147; Outcome: inactive

For TTLL9 #2, what does the deposit list?
G2 robust z-score: 1.89; G2 cells, % of GMNN control: 16.2; Outcome: inactive

What is on record for TTLL9 #3?
G2 robust z-score: 2.86; G2 cells, % of GMNN control: 23.1; Outcome: inactive

For HGD #1, how do the results read?
G2 robust z-score: -0.734; G2 cells, % of GMNN control: -2.2; Outcome: inactive

With HGD #2, what was measured?
G2 robust z-score: 1.86; G2 cells, % of GMNN control: 16; Outcome: inactive

How did the screen score HGD #3?
G2 robust z-score: -0.271; G2 cells, % of GMNN control: 1.06; Outcome: inactive

3 of these entries, set out differently.
gene,reagent no.,G2 robust z-score,"G2 cells, % of GMNN control",Outcome
HGD,1,-0.734,-2.2,inactive
HGD,2,1.86,16,inactive
HGD,3,-0.271,1.06,inactive

The list goes on:
With H3C6 #1, what does the deposit list?
G2 robust z-score: 3.54; G2 cells, % of GMNN control: 27.9; Outcome: inactive

Which result is listed for H3C6 #2?
G2 robust z-score: 0.538; G2 cells, % of GMNN control: 6.75; Outcome: inactive

How did the screen score H3C6 #3?
G2 robust z-score: 5.36; G2 cells, % of GMNN control: 40.7; Outcome: active

Which result is listed for GRHL3 #1?
G2 robust z-score: -0.37; G2 cells, % of GMNN control: 0.362; Outcome: inactive

For GRHL3 #2, how do the results read?
G2 robust z-score: 0.376; G2 cells, % of GMNN control: 5.61; Outcome: inactive

How did the screen score GRHL3 #3?
G2 robust z-score: -0.473; G2 cells, % of GMNN control: -0.363; Outcome: inactive

What did the screen give for CST11 #1?
G2 robust z-score: -0.345; G2 cells, % of GMNN control: 0.539; Outcome: inactive

What is on record for CST11 #2?
G2 robust z-score: 0.331; G2 cells, % of GMNN control: 5.3; Outcome: inactive

Which result is listed for CST11 #3?
G2 robust z-score: 1.41; G2 cells, % of GMNN control: 12.9; Outcome: inactive

For IGFLR1 #1, how do the results read?
G2 robust z-score: 7.81; G2 cells, % of GMNN control: 57.9; Outcome: active

For IGFLR1 #2, what does the deposit list?
G2 robust z-score: -0.483; G2 cells, % of GMNN control: -0.433; Outcome: inactive

With IGFLR1 #3, what was measured?
G2 robust z-score: -0.397; G2 cells, % of GMNN control: 0.172; Outcome: inactive
